# Measured values as given in the supplement of paper PMC3334620.
# In all, about 33,000 sequences were measured (“E-score (-0.5 to 0.5)”: median about -0.0014, highest 2% from about 0.25 on). The list shows a part of the results.
# Target: T1, Cad1 (UniProt P24813)
# T1 sequence: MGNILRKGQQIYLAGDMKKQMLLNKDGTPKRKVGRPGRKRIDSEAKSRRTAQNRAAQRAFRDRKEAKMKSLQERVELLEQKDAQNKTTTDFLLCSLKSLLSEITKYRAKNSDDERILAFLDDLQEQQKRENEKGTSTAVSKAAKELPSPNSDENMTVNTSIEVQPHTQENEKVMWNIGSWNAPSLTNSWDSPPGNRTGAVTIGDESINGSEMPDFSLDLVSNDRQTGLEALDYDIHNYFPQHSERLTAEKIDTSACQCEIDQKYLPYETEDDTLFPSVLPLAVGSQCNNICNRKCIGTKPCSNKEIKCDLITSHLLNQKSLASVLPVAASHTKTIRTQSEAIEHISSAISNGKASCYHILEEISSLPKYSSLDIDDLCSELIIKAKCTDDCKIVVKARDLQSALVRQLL
# Assay: PBM E-score (8-mer binding enrichment) (E-score (-0.5 to 0.5)); higher = stronger / more preferred TF binding
# Conditions: protein concentration: 100 nM; construct: GST-full length
# In short: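 Universal all-10-mer Agilent arrays, double-stranded by primer extension on fresh or once-stripped slides, were probed with about 100-200 nM GST-tagged yeast transcription factors made by PURExpress. Fluorescent anti-GST detected bound protein, and masliner normalised the scans. E-scores from the Universal PBM Analysis Suite were given to each ungapped eight-base word pooled with its reverse complement.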
row,Sequence,PBM E-score
1,GTTCCTCA,0.0209
2,AGCAATAG,-0.0777
3,AACATACA,-0.0678
4,ACCGTGCG,0.0974
5,CGGCTTAA,0.235
6,CCCCACAG,-0.28
7,GATCTACC,-0.079
8,ACGTCGTG,0.136
9,CATTCTAC,-0.108
10,AACGACTT,-0.0875
11,CTTAGAAG,-0.0858
12,AGCATCGC,-0.0978
13,GACTCCTA,-0.0875
14,AGCGTATG,-0.095
15,CCCGGGTA,0.0006
16,AAACGTTG,-0.0452
17,CAATACTA,0.0552
18,CAGTCATG,0.0236
19,AACCCTGC,-0.181
20,CACATATG,-0.129
21,ACAATCCT,0.11
22,ATGTGTCA,0.203
23,CTGGCTAC,-0.259
24,CGGGCTGC,0.022
25,GATTTATA,0.319

row,Sequence,PBM E-score
1,AATAATCC,0.194
2,GTACCTAA,-0.179
3,ACCCGCCC,0.114
4,AACTCTGG,-0.0832
5,CGTAGCTA,-0.00071
6,ATTGCTGG,-0.127
7,ACGTCTTG,-0.0185
8,CTATGGAC,0.0446
9,TATCCACA,0.132
10,AGTTTCCA,0.0647
11,GAGTACTA,0.0169
12,GAAATTTC,0.095
13,AGGACCGC,0.0234
14,AGCAAAGA,-0.0149
15,GGGGGTAC,-0.256
16,AGCTATAG,-0.244
17,CGACTACA,0.0971
18,AATTTCTC,0.107
19,TCCACCAA,0.0952
20,ATGGACTG,-0.0436
21,CTGAAAGC,0.116
22,CAGCTCGC,0.0828
23,AGTTGAAT,0.123
24,AAAGAGCT,-0.0808
25,GCAAGCGA,-0.0403

row,Sequence,PBM E-score
1,CGACAACC,-0.0742
2,AACCAAGA,0.151
3,AAGGGATA,0.0892
4,GCCCAAAA,0.0303
5,ATTTTTTG,0.122
6,GGGTAGGA,-0.0874
7,CTAAAGGA,-0.0686
8,CCGAACGG,0.0834
9,CTCCACAA,-0.0764
10,AACCCTCC,-0.249
11,ATAAGTCG,0.1
12,AGTGGCAA,-0.0116
13,CACGCTCA,0.261
14,AACGTTGG,0.0402
15,AGGAGACT,-0.286
16,GCGGATAC,0.157
17,CACCAAGA,0.125
18,ATTGGTCC,0.0438
19,ATGGCGGA,-0.081
20,CGTGCGCC,0.0558
21,ATGTGCGA,-0.0686
22,AAGCTCGG,0.0173
23,AGAGATTG,0.0141
24,AGAGCTGA,-0.0609
25,AGGCGGAG,0.0182

row,Sequence,PBM E-score
1,GCGCAGCC,-0.0564
2,AGTCGGCA,-0.146
3,ATTGTTCC,0.19
4,CCGTCTTA,-0.126
5,AATGAAGC,0.0447
6,CCCTGTCC,-0.252
7,GACTTGAC,-0.0883
8,CAGCAAGA,0.168
9,CGCCATTA,0.0208
10,CTGCAAAC,-0.0866
11,GCGGCAAA,0.0972
12,AATCCCCC,-0.39
13,ATGTAATC,0.168
14,AATCGCTG,0.0876
15,CGAATGTA,-0.0748
16,TAGGAAAA,-0.00955
17,CTCCTAAA,-0.249
18,CAATATTA,0.187
19,ACCGCTTA,0.0926
20,GCCGACCA,-0.0453
21,CATAGGGG,-0.0969
22,GGACGCCA,-0.0737
23,ATCCTAAC,0.127
24,CGAGCCGC,0.11
25,AGGTAAGG,-0.105

row,Sequence,PBM E-score
1,ACAAATGA,0.148
2,AGACTACT,0.0845
3,AACATGGT,0.0188
4,GGAGCTAA,-0.0999
5,GATAGGCA,-0.0196
6,CAAACTCC,0.00985
7,TGAGCTAA,-0.0989
8,AGAGACAA,-0.0421
9,AGGATTAA,0.167
10,CGCGTGAA,0.227
11,ATGGTCAG,0.182
12,GAACTGGA,0.158
13,TATGAAAA,0.163
14,TACCGAAA,0.00486
15,TACACAGA,0.117
16,CCTTACAC,-0.129
17,AACAAGCG,0.199
18,ATGCTTAG,0.145
19,AAGAAGCT,0.0694
20,GCGTTGCC,0.0483
21,CTTAGCGA,0.041
22,CAATGTCG,0.074
23,AATGAGTC,-0.0776
24,GACCATTA,0.0271
25,ACTTACAC,-0.0153

row,Sequence,PBM E-score
1,AGCGCCTG,0.0582
2,CGTGTCCC,-0.208
3,GGCCAGGA,0.0859
4,ACTCATCG,0.0286
5,GACAGGAC,-0.149
6,CATCTTTC,-0.0525
7,ACACCCAT,0.0236
8,GCTAACGA,0.0654
9,AACTTACA,0.143
10,CATAAATG,-0.127
11,GGGGGATA,-0.323
12,AAATGTCC,-0.204
13,AATGGCGT,-0.0762
14,AAATTCCC,-0.00316
15,GCGCTACA,0.141
16,AAGTAAGA,-0.215
17,AAGGCACG,0.0467
18,ATGATTTC,0.172
19,ATCCTGGA,0.0158
20,GGTCCATA,-0.158
21,CCCCCAGG,-0.361
22,GTGAAACA,0.0578
23,GTAGCGAC,-0.137
24,GCATTGAA,0.0835
25,CGTAAAAC,-0.109

# 4 records drawn at random from the list so far:
row,Sequence,PBM E-score
20,CGTGCGCC,0.0558
14,AACGTTGG,0.0402
22,CAATGTCG,0.074
2,AGACTACT,0.0845

# (list continues)

row,Sequence,PBM E-score
1,CGACATTA,0.163
2,GTAGCCTA,-0.154
3,ACTCTGAC,-0.094
4,AGCCAGAC,-0.0137
5,GGCCTAGA,-0.15
6,AGGTAGTC,-0.0998
7,GGAAGATA,0.00682
8,CGCACCTC,-0.104
9,AAGCTAGA,-0.0158
10,GATTTCCA,0.0565
11,ATAGCTGA,-0.0845
12,AAACCAGG,-0.0514
13,ACCCTCAC,-0.0597
14,CATGTTAC,0.0475
15,GTAGCAAA,0.165
16,CAGTTGCA,0.00906
17,CACTCTTC,-0.185
18,ATCGGCAT,0.156
19,TAGCGTCA,-0.00814
20,CAGCCCCG,-0.0953
21,CCATAGCC,-0.118
22,CCGGCCGA,0.017

# A run of entries from further up:
row,Sequence,PBM E-score
19,TAGCGTCA,-0.00814
20,CAGCCCCG,-0.0953
